These are yes or no findings as the source states them, for the method shown. In cells and extracts the contact can be indirect. Some binding calls cover weakened binding; strength is not graded here. For some of these results: Tags and fused reporters may be left off the sequences shown.
T1: EGFP-tagged RepoMan-WT (UniProt Q69YH5)
T1 sequence: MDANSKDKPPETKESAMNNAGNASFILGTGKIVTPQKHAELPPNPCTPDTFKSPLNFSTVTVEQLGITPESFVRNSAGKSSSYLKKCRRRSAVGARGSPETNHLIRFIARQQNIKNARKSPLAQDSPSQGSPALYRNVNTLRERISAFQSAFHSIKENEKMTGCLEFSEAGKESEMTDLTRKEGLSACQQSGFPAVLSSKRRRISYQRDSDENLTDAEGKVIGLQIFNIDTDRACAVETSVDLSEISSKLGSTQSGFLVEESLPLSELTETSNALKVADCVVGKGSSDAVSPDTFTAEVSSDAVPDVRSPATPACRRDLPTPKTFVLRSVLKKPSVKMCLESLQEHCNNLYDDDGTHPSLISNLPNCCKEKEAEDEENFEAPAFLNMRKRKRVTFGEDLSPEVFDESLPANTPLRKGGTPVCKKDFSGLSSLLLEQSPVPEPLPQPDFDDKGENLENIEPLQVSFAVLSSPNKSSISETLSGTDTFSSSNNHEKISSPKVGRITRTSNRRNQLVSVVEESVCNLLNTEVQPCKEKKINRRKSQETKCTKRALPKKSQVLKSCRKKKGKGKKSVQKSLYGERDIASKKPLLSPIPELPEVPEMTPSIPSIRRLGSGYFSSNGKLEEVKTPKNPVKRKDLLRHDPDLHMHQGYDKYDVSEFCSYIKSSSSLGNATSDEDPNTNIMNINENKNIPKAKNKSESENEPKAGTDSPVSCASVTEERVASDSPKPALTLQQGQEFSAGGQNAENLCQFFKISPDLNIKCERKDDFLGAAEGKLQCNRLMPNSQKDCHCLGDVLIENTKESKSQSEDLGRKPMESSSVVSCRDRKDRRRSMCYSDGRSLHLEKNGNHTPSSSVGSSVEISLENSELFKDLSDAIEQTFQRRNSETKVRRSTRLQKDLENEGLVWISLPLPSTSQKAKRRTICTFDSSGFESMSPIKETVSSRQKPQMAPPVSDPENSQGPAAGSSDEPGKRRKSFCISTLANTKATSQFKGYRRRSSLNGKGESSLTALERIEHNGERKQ

By UniProt entry, the sequences of proteins in these tests, tags left out.
UniProt Q14974: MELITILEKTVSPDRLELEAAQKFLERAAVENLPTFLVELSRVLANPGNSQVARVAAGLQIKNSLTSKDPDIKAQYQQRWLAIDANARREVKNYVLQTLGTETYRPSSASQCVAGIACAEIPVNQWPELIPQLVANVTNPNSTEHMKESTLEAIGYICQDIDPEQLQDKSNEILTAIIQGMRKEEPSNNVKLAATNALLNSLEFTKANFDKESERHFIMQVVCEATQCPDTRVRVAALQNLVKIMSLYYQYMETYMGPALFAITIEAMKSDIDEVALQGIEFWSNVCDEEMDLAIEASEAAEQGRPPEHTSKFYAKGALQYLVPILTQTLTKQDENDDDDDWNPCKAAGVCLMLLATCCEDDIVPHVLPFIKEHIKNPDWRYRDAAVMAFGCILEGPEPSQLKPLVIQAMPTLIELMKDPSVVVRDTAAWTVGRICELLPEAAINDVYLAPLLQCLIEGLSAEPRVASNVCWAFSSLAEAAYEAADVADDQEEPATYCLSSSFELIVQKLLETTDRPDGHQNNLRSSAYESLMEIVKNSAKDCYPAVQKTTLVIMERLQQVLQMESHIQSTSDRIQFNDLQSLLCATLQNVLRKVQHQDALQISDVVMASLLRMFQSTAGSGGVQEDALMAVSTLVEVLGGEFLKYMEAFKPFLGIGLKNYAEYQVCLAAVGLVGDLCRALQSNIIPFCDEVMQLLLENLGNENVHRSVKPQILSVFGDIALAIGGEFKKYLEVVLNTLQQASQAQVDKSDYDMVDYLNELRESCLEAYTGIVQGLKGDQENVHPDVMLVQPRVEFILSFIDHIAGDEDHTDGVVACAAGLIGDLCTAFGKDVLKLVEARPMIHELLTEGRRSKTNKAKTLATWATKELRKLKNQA


Legend:
EGFP-tagged RepoMan-WT [1] = biological target: T1, EGFP-tagged RepoMan-WT; test: co-IP; EGFP traps of EGFP-RepoMan fusions from lysates of transfected U2OS cells: non-synchronized, Nocodazole-arrested, released, or arrested and treated with 100 uM Roscovitine; immunoblot
EGFP-tagged RepoMan-WT [2] = biological target: T1, EGFP-tagged RepoMan-WT; test: pull-down; EGFP traps from non-synchronized HEK293T cells washed with 1.5 M NaCl, phosphorylated in vitro with Cdk2 for different times, then added to mitotic cell lysates (HeLa in Fig. 4f); immunoblot of the pelleted traps; only the target purified
EGFP-tagged Importin β = EGFP-tagged Importin β (UniProt Q14974); test: pull-down; EGFP-tagged Importin β with or without Cdk phosphorylation, tested for binding of RepoMan (Supplementary Fig. 6b; legend not shown)
[3] = biological target: EGFP-tagged Importin β after Cdk phosphorylation (UniProt Q14974); test: as above

Row | Molecule | binding (EGFP-tagged RepoMan-WT [1]) | binding (EGFP-tagged RepoMan-WT [2]) | binding (EGFP-tagged Importin β) | binding [3]
1 | Importin β (endogenous) (from UniProt Q14974 1-876) | binds | binds |  | 
2 | RepoMan (endogenous) (protein, UniProt Q69YH5 1-1023) MDANSKDKPPETKESAMNNAGNASFILGTGKIVTPQKHAELPPNPCTPDTFKSPLNFSTVTVEQLGITPESFVRNSAGKSSSYLKKCRRRSAVGARGSPETNHLIRFIARQQNIKNARKSPLAQDSPSQGSPALYRNVNTLRERISAFQSAFHSIKENEKMTGCLEFSEAGKESEMTDLTRKEGLSACQQSGFPAVLSSKRRRISYQRDSDENLTDAEGKVIGLQIFNIDTDRACAVETSVDLSEISSKLGSTQSGFLVEESLPLSELTETSNALKVADCVVGKGSSDAVSPDTFTAEVSSDAVPDVRSPATPACRRDLPTPKTFVLRSVLKKPSVKMCLESLQEHCNNLYDDDGTHPSLISNLPNCCKEKEAEDEENFEAPAFLNMRKRKRVTFGEDLSPEVFDESLPANTPLRKGGTPVCKKDFSGLSSLLLEQSPVPEPLPQPDFDDKGENLENIEPLQVSFAVLSSPNKSSISETLSGTDTFSSSNNHEKISSPKVGRITRTSNRRNQLVSVVEESVCNLLNTEVQPCKEKKINRRKSQETKCTKRALPKKSQVLKSCRKKKGKGKKSVQKSLYGERDIASKKPLLSPIPELPEVPEMTPSIPSIRRLGSGYFSSNGKLEEVKTPKNPVKRKDLLRHDPDLHMHQGYDKYDVSEFCSYIKSSSSLGNATSDEDPNTNIMNINENKNIPKAKNKSESENEPKAGTDSPVSCASVTEERVASDSPKPALTLQQGQEFSAGGQNAENLCQFFKISPDLNIKCERKDDFLGAAEGKLQCNRLMPNSQKDCHCLGDVLIENTKESKSQSEDLGRKPMESSSVVSCRDRKDRRRSMCYSDGRSLHLEKNGNHTPSSSVGSSVEISLENSELFKDLSDAIEQTFQRRNSETKVRRSTRLQKDLENEGLVWISLPLPSTSQKAKRRTICTFDSSGFESMSPIKETVSSRQKPQMAPPVSDPENSQGPAAGSSDEPGKRRKSFCISTLANTKATSQFKGYRRRSSLNGKGESSLTALERIEHNGERKQ |  |  | binds | binds

From paper PMC4703885
